Reference: patent publication US5989565A, “Elution and identification of T cell epitopes from viable cells” (University of Pittsburgh, priority 1995, dated 1999)
pEC50: −log10 of the molar value. Read-outs that look alike come from different tables or passages of the source. Part of at least one peptide drawing is inferred or uncertain, most often the ends. Ends that are not written are not given here.

Tested on: T2 target cells
Experiment: Reconstitution of T cell epitopes: CTL cytotoxicity against peptide-pulsed T2 cells
Assay type: cell-based, human
Conditions: for pEC50: read-out: half-maximal sensitization for lysis

What does the source list for ILTVILGVL [p939]?
pEC50 (A42-clone, E:T 10:1, 4 hours): ~8.52; pEC50 (TIL 1235, E:T 10:1, 4 hours): ~11.00; lowest peptide dose giving peptide-specific release of interferon-γ (TIL 1235 and CTL clone A42, data not shown): 1 pM; pEC50 (TIL 6970, E:T 10:1, 4 hours): ~11.00; pEC50 (clone A83, E:T 10:1, 4 hours): ~11.00; recognition and lysis of peptide-pulsed T2 cells (fresh melanoma TIL 5403, data not shown): able to recognize and lyse
